Test system: published kinase panels
Experiment: Selectivity metrics calculated from published kinome profiling data
Format: biochemical
[1] = 10 μM, 402 kinases, data of ref 31

`COc1ccc2c(c1)[nH]c1c(C)nccc12` [Harmine, harmine] gave a Gini score (1 μM, 117 kinases, data of ref 45) of 0.628 and a Gini score [1] of 0.843.
With `CCN1/C(=C/C(C)=O)Sc2ccc(O)cc21` [INDY] the Gini score (10 μM, 66 kinases, data of ref 30) was 0.342.
`O=C1NC(Nc2ccccc2)=N/C1=C\c1ccc2c(c1)OCO2` [L41] was tested, and the Gini score [1] was 0.673.
With `COc1ccc2c3ccnc(C(F)(F)F)c3n(CCCCN)c2c1` [LDN-211898] the Gini score (10 μM, 292 kinases, data of ref 38) was 0.652.
In the case of `CN1C(=O)/C(=C/c2ccc3c(c2)OCO3)N=C1N` [Leucett-amine B, Leucettamine B], the Gini score [1] is reported as 0.862.
Work on `c1ccc(-c2cc(-c3cncs3)cs2)cc1` [Thiophene 29] yielded a Gini score (5 μM, 102 kinases, data of ref 57) of 0.741.

From paper PMC4508061, “Selectivity Profiling and Biological Activity of Novel β-Carbolines as Potent and Selective DYRK1 Kinase Inhibitors” (PLoS ONE, 2015)
